Columns and labels:
[1] = tested on: Ni-NTA functionalized SWNT/CHI array; test: On-chip cell-free expression and immobilization of His-tag capture proteins, nIR fluorescence of SWNT/CHI array; settings: distance change between Ni2+ ion and SWNT after receptor protein, Förster resonance energy transfer equation
antiHis Ab = test: Protein-protein interaction on SWNT/CHI array, Förster distance calculation; settings: distance change after analyte protein antiHis Ab, Förster equation

| Substance | Δd1 [1] | Δd2 (antiHis Ab) |
| --- | --- | --- |
| FOS: human derived protein (ExPASy P01100), on-chip cell-free expressed with His-tag | 0.0956 nm | – |
| JUN: human derived protein (ExPASy P05412), on-chip cell-free expressed with His-tag | 0.07671 nm | – |
| Tsf: E. coli protein (ExPASy P0A6P1), cell-free expressed with C-terminal His-tag | 0.1883 nm | −0.01899 |
| p16: human derived protein (ExPASy P42771), on-chip cell-free expressed with His-tag | 0.0812 nm | – |
